# Library screen at single concentrations

Chains of the proteins cited; added tags and fusions are not shown. Residues count along the entry.
UniProt A4I591, 1-473: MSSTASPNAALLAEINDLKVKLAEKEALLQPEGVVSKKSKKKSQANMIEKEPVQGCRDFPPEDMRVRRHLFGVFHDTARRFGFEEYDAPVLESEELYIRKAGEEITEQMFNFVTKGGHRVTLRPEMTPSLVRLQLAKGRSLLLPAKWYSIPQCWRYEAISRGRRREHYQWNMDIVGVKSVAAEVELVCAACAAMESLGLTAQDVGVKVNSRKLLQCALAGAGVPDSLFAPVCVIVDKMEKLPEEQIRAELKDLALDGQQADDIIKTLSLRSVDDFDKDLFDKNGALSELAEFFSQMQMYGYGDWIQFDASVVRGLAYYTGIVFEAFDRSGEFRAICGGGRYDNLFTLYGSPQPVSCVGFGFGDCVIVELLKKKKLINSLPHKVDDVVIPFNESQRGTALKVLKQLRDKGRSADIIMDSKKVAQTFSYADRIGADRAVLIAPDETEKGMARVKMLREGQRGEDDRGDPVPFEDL
UniProt P9WFT3, whole entry: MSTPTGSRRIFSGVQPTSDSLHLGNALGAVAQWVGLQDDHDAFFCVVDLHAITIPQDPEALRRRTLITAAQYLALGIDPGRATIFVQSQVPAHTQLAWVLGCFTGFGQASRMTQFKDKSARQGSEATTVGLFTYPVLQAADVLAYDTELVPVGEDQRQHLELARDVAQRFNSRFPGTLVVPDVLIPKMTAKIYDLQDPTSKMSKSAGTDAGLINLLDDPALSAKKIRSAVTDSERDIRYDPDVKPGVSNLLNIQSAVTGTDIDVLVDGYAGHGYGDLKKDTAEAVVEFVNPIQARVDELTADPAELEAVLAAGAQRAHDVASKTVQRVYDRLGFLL
UniProt P9WNZ1, whole entry: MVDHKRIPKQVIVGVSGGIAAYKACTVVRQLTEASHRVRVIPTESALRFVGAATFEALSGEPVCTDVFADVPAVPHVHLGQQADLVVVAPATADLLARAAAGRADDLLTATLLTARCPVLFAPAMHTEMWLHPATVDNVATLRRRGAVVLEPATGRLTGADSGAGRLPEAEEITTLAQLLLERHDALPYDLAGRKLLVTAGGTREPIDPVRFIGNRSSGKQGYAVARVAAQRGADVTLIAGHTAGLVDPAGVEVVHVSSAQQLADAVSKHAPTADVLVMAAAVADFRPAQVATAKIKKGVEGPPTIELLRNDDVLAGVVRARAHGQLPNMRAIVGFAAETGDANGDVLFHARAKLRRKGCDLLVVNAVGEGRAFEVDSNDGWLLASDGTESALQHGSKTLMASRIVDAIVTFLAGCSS

The filed quantity is “Percent Effect” (%). The controls that fix the scale are not given in the record; negative values are as filed. Compounds were drawn at random from those tested, without regard to their results. Two or more numbers in one place are separate tests of the same structure; such repeats can differ widely. A dash means the value is not listed here; it may have been measured.

LiHisRS: 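Histidine-tRNA ligase, Leishmania infantum (UniProt A4I591). Enzyme assay of histidyl-tRNA synthetase; the read-out is not stated. Compounds at 30 µM. Direction is inferred from retests: higher values go with stronger inhibition. The assay is labelled LdHisRS but filed under L. infantum. Size under these conditions: about 69,000 compounds, about 410 of them at 50% or above in at least one test.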
MtTrpRS: 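Enzyme assay of tryptophanyl-tRNA synthetase; the read-out is not stated. Target: Tryptophan-tRNA ligase, Mycobacterium tuberculosis (UniProt P9WFT3). Concentration: 10 µM. Direction is not recorded; retested compounds ran higher, which suggests that high means inhibition. Of about 65,000 compounds tested this way, about 64 (0.098%) reached 50% or more in at least one test.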
CoaBC: 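Enzyme assay of CoaBC with a phosphate dye (Biomol Green) read at 650 nm. Target: Coenzyme A biosynthesis protein CoaBC, Mycobacterium tuberculosis (UniProt P9WNZ1). Concentration: 30 µM. Direction is inferred from only a few compounds that gave an IC50; most scored high, so higher reads as stronger inhibition. Most strong results did not repeat in a second test. Of about 67,000 compounds tested this way, about 40 (0.06%) reached 50% or more in at least one test.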

| compound | LiHisRS | MtTrpRS | CoaBC |
|---|---|---|---|
| `Cc1ccsc1C(=O)N1CC(C(=O)N2CCOCC2)C2(CCOCC2)C1` (configuration not stated) | -8.738 | 4.079 | -3.929 |
| `CCC(CN1CCCCC1)NC(=O)C1(c2ccc(F)cc2)CC1` (configuration not stated) | 11.27 | -4.881 | -6.905 |
| `COc1ccc2c(c1)[C@@H](CCNC(C)=O)CC(C)(C)O2` | 2.857 | - | 0.1205 |
| `O=C1C(NS(=O)(=O)c2ccc(F)cc2)CCN1Cc1ccccc1` (configuration not stated) | 11.86 | -5.731 | 0.2625 |
| `CCOCC1CN(C(=O)COc2ccccc2)Cc2cn(C)nc21` (configuration not stated) | 7.965 | -0.239 | 13.26 |
| `COc1cc(C)nc(N2CCN(Cc3nccn3C)CC2)n1` | 22.12 | -0.7583 | -5.485 |
| `Cn1cnc2ccc(NC(=O)CCCn3cccn3)cc2c1=O` | 13.04 | 3.605 | 4.116 |
| `O=C(Cn1c(=O)n(Cc2ccco2)c2ncccc21)NC1CCCC1` | 1.449 | - | 2.913 |
| `NC(=O)C1Cn2ccnc2C2(CCN(C(=O)NC3CCCC3)CC2)O1` (configuration not stated) | 10 | - | 1.235 |
| `O=C(NCc1nc(C2CC2)no1)N1CCOC(c2ccccc2F)C1` (configuration not stated) | 15.38 | 1.987 | 3.537 |
| `O=C(NCC(O)(c1ccco1)C1CC1)c1c(F)cccc1Cl` (configuration not stated) | 28.21 | 5.033 | -2.799 |
| `COCC1CN(Cc2ccc(F)cc2)Cc2nnn(CC3CC3)c21` (configuration not stated) | 6.849 | -1.687 | -0.4894 |
| `CCN1CCCC(CNC(=O)CCc2ccc(OC)c(F)c2)C1` (configuration not stated) | 8.036 | -1.906 | 7.54 |
| `COCCN(C)c1cnn(C)c(=O)c1Br` | 10.84 | 1.683 | 8.407 |
| `CC(C)c1nc(CN2CCCC2Cn2cncn2)no1` (configuration not stated) | 1.786 | 16.26 | 2.915 |
| `Cc1cc(C)n(-c2cc(N3CCN(C(=O)C(C)(C)C)CC3)nc(C)n2)n1` | 14.56 | 3.552 | 10.27 |
| `O=C(c1ccc(-n2cnnc2)nc1)N1CCCC(O)(CO)CC1` (configuration not stated) | 14.63 | -0.5939 | 3.944 |
| `c1cc(CNCc2ccnc(N3CCCCC3)c2)c2c(c1)OCCCO2` | 36.36 | -0.277 | -6.509 |
| `CCOc1ccc(N(CCC#N)C(=O)c2ccc(OC)nc2)cc1` | 25 | -1.188 | -0.3226 |
| `CNC(=O)COc1c(F)cc(Br)cc1C(C)=O` | 14.29 | 6.755 | -2.479 |
| `O=S1(=O)CCC(n2cc(C3=CCN(CCN4CCCCC4)CC3)cn2)C1` (configuration not stated) | 18.33 | -1.698 | 9.756 |
| `CN(C)CCN1CCOCC2(CCCN(C(=O)c3ccccn3)C2)C1` (configuration not stated) | 14.29 | -2.929 | -19.54 |
| `CCN1C[C@@H]2CN(c3cc(OC)ncn3)CCC[C@]2(C(=O)O)C1` | 7.965 | 1.036 | 4.421 |
| `CN(Cc1ccncc1)c1cncc(Br)c1` | 15.66 | 1.836 | -1.129 |
| `CNS(=O)(=O)CCCN1CCN(C(C)c2cccnc2)CC1` (configuration not stated) | 12.9 | -4.359 | -1.474 |
| `O=C(NCC1CC1)c1cc2c(s1)CCN2c1ncccn1` | 47.75 | - | -3.96 |
| `Cc1ccc(F)cc1S(=O)(=O)Nc1ccc2c(C(=O)O)c[nH]c2c1` | 15.38 | 14.65 | 5.735 |
| `O=C(Cc1ccc(Cl)cc1)N1CCC(O)(C(F)(F)F)C1` (configuration not stated) | 6.14 | -5.705 | 7.662 |
| `CN(Cc1cc2n(n1)CCCN(C(=O)N1CCCC1)C2)Cc1nccs1` | 13.99 | 23.18 | 6.667 |
| `COc1ccc2c(c1)CC(NC(=O)NCc1cccs1)CO2` (configuration not stated) | 12.62 | -8.269 | 1.648 |
| `CS(=O)(=O)N1CCCC(C(=O)Nc2cnn(Cc3ccc(Cl)cc3)c2)C1` (configuration not stated) | 4.124 | - | -1.595 |
| `COCCN(Cc1cccc(C#N)c1)Cc1nc(C)no1` | 14.29 | 3.518 | -0.8092 |
| `Cn1cnc2c1C(C(=O)N1CCCC1)N(CC1CC1)CC2` (configuration not stated) | 14 | -0.9149 | -10.86 |
| `CS(=O)(=O)NC1CCN(c2cccc(F)c2C#N)CC1` | 20.48 | -4.215 | 3.165 |
| `O=C(CCC1CCN(C2Cc3ccccc3C2)CC1)NCC1CCCO1` (configuration not stated) | 0 | -8.996 | 3.444 |
| `COc1nccnc1N1CCN(Cc2cccc(C)c2)C(=O)C1` | 12.33 | -3.614 | -1.794 |
| `CCN1CCOC(CNCc2ccccc2OCc2cccnc2)C1` (configuration not stated) | 22.02 | 1.645 | 2.117 |
| `CCCc1nnc(N2CCC3(CCC(=O)N(C)C3)CC2)o1` | 13.27 | -0.08374 | 0.2123 |
| `O=C(O)c1coc(COc2cccc3cnccc23)n1` | 19.74 | -1.104 | 8.411 |
| `NC(=O)NC(=O)CCN1CCCC1c1cccc2c1OCCO2` (configuration not stated) | 18.75 | 3.693 | 4.132 |
| `c1ccc(-c2nnc3ccc(N4CCC5(CCOC5)C4)nn23)cc1` (configuration not stated) | 15.97 | -2.75 | 0.4878 |
| `CC(C)c1nnc(C2CCN(CC(=O)Nc3cccnc3)CC2)o1` | 17.33 | 5.451 | 6.561 |
| `CN1CCN2C[C@@H](CO)[C@H](c3ccccc3)[C@H]2C1` | 8.163 | - | -0.4843 |
| `Cc1ccc2c(c1)CCC2NC(=O)N1CCC(C(N)=O)CC1` (configuration not stated) | 14.16 | 2.007 | -1.722 |
| `O=C(Nc1cnccn1)[C@@H]1C[C@H]2OCC[C@H]2N(Cc2ccsc2)C1` | 12.73 | -5.929 | 5.882 |
| `c1cncc(COCC2C[C@@H]3OCCN(Cc4cccnc4)[C@H]3C2)c1` (some centres not stated) | 28.3 | - | 4.39 |
| `CC(=O)N1CCN(CCNS(=O)(=O)c2c(F)cccc2F)CC1` | 17.98 | 2.348 | 0.361 |
| `CN(Cc1nccn1C)c1nccc(N2CCCC(O)C2)n1` (configuration not stated) | 6 | -1.452 | -1.733 |
| `COc1ccc(C(=O)Nc2nncs2)cn1` | 1.408 | 4.339 | - |
| `COc1cc(O)cc2c1C(=O)CC(c1ccc(O)cc1)O2` (configuration not stated) | 25 | 0.9789 | 65.24 & 48.68 |
| `CCC(CO)N(Cc1ccccn1)C(=O)c1ncccc1C` (configuration not stated) | 3.125 | -1.536 | -1.028 |
| `O=C(O)c1cc(-c2cccs2)nc2c(Br)cnn12` | 8.247 | - | -2.331 |
| `N#Cc1ccnc(NCc2cc3n(n2)CCCN(C(=O)C2CCC2)C3)c1` | 15.96 | 5.948 | 8.562 |
| `CN(C)c1no[n+]([O-])c1-c1ccccc1` | -5.618 | -3.479 | -28.12 |
| `CCOCCNC(=O)c1ccn(S(=O)(=O)c2ccc(C)cc2)c1` | 19.18 | 2.086 | 8.557 |
| `Cc1nc(CN2CCOC3(CCCN(c4nccs4)C3)C2)cs1` (configuration not stated) | 25.71 | 11.39 | 8.795 |
| `COc1cccc(C(O)CNC(=O)CC2CCCCC2)c1` (configuration not stated) | 9.375 | -3.186 | 8.46 |
| `c1cnc(N2CCC(c3nccn3CC3CC3)CC2)nc1` | 15 | 2.637 | 11.09 |
| `CC(C)n1c(=O)nc2n1C(=O)N(c1ccccc1)C2` | 22.86 | 1.165 | 5.533 |
| `Cc1nc(C)c(CNC(=O)NC(c2nnc3n2CCC3)C(C)C)s1` (configuration not stated) | 21.15 | 4.128 | 3.934 |
| `O=C(CCNC(=O)NC1CC1)NCc1ccccc1` | 17.46 | -0.9372 | 0.6483 |
| `C=C(C)CN1CCN(Cc2cnc(-c3ccccc3C)nc2)CC1` | -4.828 | 11.29 | -3.09 |
| `Cc1cc(CN(C)C(=O)c2ccc(F)cc2Br)no1` | -4.255 | -1.411 | 2.073 |
| `c1nc2c(c(NC3COC4(CCCC4)C3)n1)CCNCC2` (configuration not stated) | 4.762 | -1.44 | -2.427 |
| `Cc1noc(C)c1C(=O)N1CCCC1c1c(C)nn(C)c1Cl` (configuration not stated) | 10.11 | -5.114 | -3.856 |
| `COCCC(=O)N1CCC(NC(=O)c2cscc2C)CC1` | 4.225 | -2.523 | - |
| `COc1ccsc1C(=O)N1CCCN(Cc2cscn2)CC1` | 25.66 | -9.279 | 4.178 |
| `COc1ccc(C(=O)NC2CC2)c(OC2CCN(CCCSC)CC2)c1` | 8.333 | 8.812 | 3.342 |
| `CN(CCOc1ccccc1)C(=O)Nc1cccn(C)c1=O` | 111.6 | 6.486 | 7.248 |
| `Cc1ccc(-c2ccc(C(=O)NCCC(=O)N(C)C)c(F)c2)cc1` | 20.43 | -11.17 | 1.34 |
| `Cc1ccc2c(C)c(C(=O)NCCc3csc(N)n3)oc2c1` | 5.882 | 7.037 | -3.666 |
| `CN(C)C(=O)c1nc2c(s1)CCCN2Cc1ccccc1` | -245.3 | -1.763 | -18.75 |
| `O=C(O)c1cccnc1CN1CCCC1CCc1ccccc1` (configuration not stated) | 20.98 | -8.771 | 0.7407 |
| `Cc1[nH]ncc1C(C)NCc1ccc(F)cc1` (configuration not stated) | 15.05 | -2.308 | 1.474 |
| `CC[C@@H]1N(Cc2ccc(OC)cc2)CCC[C@]12CCC(=O)N2CCOC` | 0 | 19.69 | -16.05 |

The last 8 entries again:

* COc1ccc(C(=O)NC2CC2)c(OC2CCN(CCCSC)CC2)c1 | LiHisRS: 8.333%; MtTrpRS: 8.812%; CoaBC: 3.342%
* CN(CCOc1ccccc1)C(=O)Nc1cccn(C)c1=O | LiHisRS: 111.6%; MtTrpRS: 6.486%; CoaBC: 7.248%
* Cc1ccc(-c2ccc(C(=O)NCCC(=O)N(C)C)c(F)c2)cc1 | LiHisRS: 20.43%; MtTrpRS: -11.17%; CoaBC: 1.34%
* Cc1ccc2c(C)c(C(=O)NCCc3csc(N)n3)oc2c1 | LiHisRS: 5.882%; MtTrpRS: 7.037%; CoaBC: -3.666%
* CN(C)C(=O)c1nc2c(s1)CCCN2Cc1ccccc1 | LiHisRS: -245.3%; MtTrpRS: -1.763%; CoaBC: -18.75%
* O=C(O)c1cccnc1CN1CCCC1CCc1ccccc1 (configuration not stated) | LiHisRS: 20.98%; MtTrpRS: -8.771%; CoaBC: 0.7407%
* Cc1[nH]ncc1C(C)NCc1ccc(F)cc1 (configuration not stated) | LiHisRS: 15.05%; MtTrpRS: -2.308%; CoaBC: 1.474%
* CC[C@@H]1N(Cc2ccc(OC)cc2)CCC[C@]12CCC(=O)N2CCOC | LiHisRS: 0%; MtTrpRS: 19.69%; CoaBC: -16.05%

From ChEMBL document CHEMBL3988442, “University of Dundee, Small-Polar-MMV Screening Library” (2021).